Data from PubChem BioAssay AID1487 (National Center for Advancing Translational Sciences (NCATS), 2009).
Hit rate of the full screen: of about 200,000 compounds, about 25 (0.01%) were called active. This list was built around the results that the source calls inconclusive (neither active nor inactive); the mix of calls is not that of the screen. Calls come from the whole dose curve; as a rule, active = well fitted inhibition curve with a large enough effect in the signal ratio, with a control signal flat (not every such curve was filed as active); inconclusive = small, poorly fitted or top-dose-only effect, or effect the other way, or a change in a side signal; inactive = flat fitted curve, though single readings scatter; the % refers to the signal ratio. Potencies of inconclusive entries are doubtful fits and often do not repeat.

assay: qHTS Assay for Modulators of Lamin A Splicing; conditions: HeLa LMNA splicing GFP/RFP minigene ratio, 48 h; ratio change, negative = inhibition: at 46.1 µM (top of the series) unless noted
Summary of the method: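 Read-out is the ratio of GFP to DsRed2 object intensity, acquired by 488 nm laser-scanning cytometry on HeLa lamin A-EGFP minigene reporter cells. Compound incubation 48 hrs at 37 °C in Opti-MEM with 2% FBS; DMSO 0.5% final.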
% is set by controls: 0 for no effect and ±100 for the full control effect; potency is the fitted concentration of half-maximal effect.

| Structure (SMILES) | ratio change, negative = inhibition | Potency |
| --- | --- | --- |
| O=c1c(S(=O)(=O)c2ccccc2)cn(Cc2ccc(F)cc2)c2cc(N3CCCC3)c(F)cc12 | inconclusive: 9.05% [at 46 µM] |  |
| N#Cc1c(SCc2ccccc2)nc(N2CCOCC2)c2c1CCCC2 | inconclusive: 18.2% |  |
| CC1Cc2ccccc2N1C(=O)CCNS(=O)(=O)c1ccc2c(c1)CCC(=O)N2 (configuration not stated) | inactive |  |
| C(#Cc1ccccc1)C[N+]1(CC#Cc2cccc3ccccc23)CCCC1 | inconclusive: -57.7% |  |
| O=C(/C=C/c1ccc([N+](=O)[O-])cc1)N1CCN(S(=O)(=O)c2cccs2)CC1 | inconclusive: 11.5% [at 46 µM] |  |
| COCCCn1c(C)c(C(C)=O)cc(NC(=O)c2ccccc2)c1=O | inconclusive: 3.15% [at 46 µM] |  |
| Cc1cc(N2CCCC2)nc(SCC(=O)c2ccccc2)n1 | inactive |  |
| CCCCC(=O)N(Cc1ccc(-c2ccccc2-c2nn[nH]n2)cc1)[C@H](C(=O)O)C(C)C | inactive |  |
| NNC(=O)c1sccc1OCc1ccc(Cl)cc1 | inactive |  |
| CC(=O)Nc1cc(S(=O)(=O)Nc2cccc(C)c2)c(C)cc1C | inconclusive: 4.72% |  |
| O=C(c1cccnc1)N1N=C(C2CC2)CC1(O)C(F)(F)F (configuration not stated) | inconclusive: -16.8% [at 46 µM] |  |
| O=S(=O)(c1ccc(Br)cc1)c1cnc2ccccc2n1 |  | inconclusive: 31.6 µM [cytotoxic, single point] |
| Cc1ccccc1Nc1nc(CSc2nnnn2-c2ccccc2)cs1 | inactive |  |
| Cc1ccc(CNC(=O)c2cnc(N3CCCC3)nc2C)cc1 | inconclusive: 5.35% [at 46 µM] |  |
| CN(C(=O)CSc1nc2ccc(NC(=O)c3ccco3)cc2s1)c1ccccc1 | inconclusive: -3.96% [at 46 µM] |  |
| CC(OC(=O)c1ccccc1O)C(=O)Nc1cccc(Cl)c1 (configuration not stated) | inconclusive: -37.5% [at 46 µM] |  |
| CCc1ccc(C2=CC(c3cccc(OC)c3OC)n3c(nc4ccccc43)N2)cc1 (configuration not stated) | inconclusive: 15.6% [at 46 µM] |  |
| N#CCCN1CCN(C(=S)c2ccc(-c3ccc(Cl)c(Cl)c3)o2)CC1 | inconclusive: -29.7% |  |
| COc1ccc(NC(=O)Nc2ccc(Cc3ccncc3)cc2)c(OC)c1 | inconclusive: -38.6% |  |
| CCCN1CCN(CCCNC(=O)c2cc3c(=O)[nH]c4ccccc4c3s2)CC1 | inconclusive: -23.3% [at 46 µM] |  |
| O=C(COCc1cc(-c2ccc(F)cc2)on1)Nc1cc(Cl)cc(Cl)c1 | inactive |  |

| Structure (SMILES) | ratio change, negative = inhibition | Potency |
| --- | --- | --- |
| CN(Cc1ccccc1)S(=O)(=O)c1ccc2[nH]cc(C(=O)NCC3CCCO3)c(=O)c2c1 (configuration not stated) | inconclusive: -2.73% |  |
| Cc1ccc(-n2ncc3c(NCCc4ccccc4)ncnc32)cc1Cl | inconclusive: -35.9% [at 46 µM] |  |
| O=C(CCSCc1cccc(F)c1)NCCc1ccccc1 | inactive |  |
| Cc1ccc(-c2csc3nc[nH]c(=O)c23)cc1 | inconclusive: -10.9% [at 46 µM] |  |
| C#CCOC(=O)C[N+](C)(C)C/C=C/c1ccccc1 | inconclusive: 24.4% [at 46 µM] |  |
| Cc1cc(C)nc(Sc2ccc([N+](=O)[O-])cc2[N+](=O)[O-])n1 | inconclusive: 165% |  |
| COc1ccc(OC)c(NC(=O)c2cc3n(n2)C(C(F)(F)F)CC(c2ccc4c(c2)OCO4)N3)c1 (configuration not stated) | inconclusive: -30.6% [at 46 µM] |  |
| Cc1ccc(-c2noc(CCC(=O)NC3CCN(Cc4ccccc4)CC3)n2)cc1 | inconclusive: 13.3% |  |
| CCOC(=O)C1=C(CN2CCN(c3ccc(Cl)cc3)CC2)NC(=O)NC1c1ccc(F)cc1 (configuration not stated) | inconclusive: -30.7% [at 46 µM] |  |
| Cc1c(NC(=O)CSc2ncnc3ccccc23)c(=O)n(-c2ccccc2)n1C | inconclusive: -31.3% [at 46 µM] |  |
| Cc1ccc(OCC(O)Cn2c3ccccc3c3ccccc32)cc1 (configuration not stated) |  | inconclusive: 35.5 µM [cytotoxic, single point] |
| Fc1ccc2nc(-c3ccccc3)nc(SCc3nnc(-c4ccccc4)o3)c2c1 | inconclusive: 9.03% |  |
| O=C(NNC1=NS(=O)(=O)c2ccccc21)c1ccccc1Cl | inconclusive: 21.1% [at 46 µM] |  |
| COc1cccc(NC(=O)CSC2=Nc3ccccc3C3=NC(CCC(=O)NC4CCCCC4)C(=O)N23)c1 (configuration not stated) | inconclusive: 3.17% [at 46 µM] |  |
| CCOC(=O)Nc1nc(-c2ccc(F)cc2F)cs1 | inconclusive: -17.7% |  |
| CCC(=O)N/N=C(\C)CC(=O)Nc1ccc(F)cc1 | inactive |  |
| COc1cc2c(cc1OC)C(c1ccc(-c3ccc(Cl)c(Cl)c3)o1)=NCC2 | inconclusive: 56.8% |  |
| CC(C)(C)C1CCC(=NNC(=O)CC(=O)NCc2ccccc2)CC1 (configuration not stated) | inactive |  |
| c1ccc(CNc2ccnc(-c3cccnc3)n2)cc1 | inconclusive: -17.6% |  |
| CCc1ccc(CCC(=O)Nc2ccccc2C(=O)O)o1 |  | inconclusive: 17.8 µM [inhibitor, single point] |
| COc1ccc(C(=O)COC(=O)c2ccc(N(C)C)cc2)cc1 | inconclusive: 24.2% [at 46 µM] |  |

Molecules above containing a cyano group, in the order listed:

| Structure (SMILES) | ratio change, negative = inhibition | Potency |
| --- | --- | --- |
| N#Cc1c(SCc2ccccc2)nc(N2CCOCC2)c2c1CCCC2 | inconclusive: 18.2% |  |
| N#CCCN1CCN(C(=S)c2ccc(-c3ccc(Cl)c(Cl)c3)o2)CC1 | inconclusive: -29.7% |  |

Looked up one by one from the list above, 2 records:

| Structure (SMILES) | ratio change, negative = inhibition | Potency |
| --- | --- | --- |
| Cc1c(NC(=O)CSc2ncnc3ccccc23)c(=O)n(-c2ccccc2)n1C | inconclusive: -31.3% [at 46 µM] |  |
| c1ccc(CNc2ccnc(-c3cccnc3)n2)cc1 | inconclusive: -17.6% |  |

Later entries

| Structure (SMILES) | ratio change, negative = inhibition | Potency |
| --- | --- | --- |
| Cc1ccc(C(=O)NC(=S)NCC(=O)c2ccccc2)cc1 | inactive |  |
| COc1ccc(C(=O)Nc2ccc3c(c2)CCCN3S(=O)(=O)c2ccc(C)cc2)cc1 | inconclusive: 18.8% [at 46 µM] |  |
| CC(C)c1ccc(C(=O)Nc2ccc(N3CCOCC3)cc2)cc1 |  | inconclusive: 35.5 µM [fluorescent, single point] |
| Cc1cc(N2CCCCC2)n2ncc(-c3ccc(Cl)cc3)c2n1 | inactive |  |
| N#Cc1c2ccc(O)cc2n2ccccc12 |  | inconclusive: 3.98 µM [inhibitor, full curve, poor fit] |
| CC1=C(\C=C/C(C)=C/C=C\C(C)=C\C(=O)O)C(C)(C)CCC1 | inconclusive: -14.1% |  |
| CCCn1c(N2CCN(C(=O)Nc3ccccc3)CC2)nc2ccccc21 | inconclusive: 13% [at 46 µM] |  |
| CCOC(=O)c1cc(-c2ccc(OC)cc2)n(CCC(=O)NC2CCC(C)CC2)c1C (configuration not stated) | inactive |  |
| O=c1cc(C(F)(F)F)nc(-c2ccccc2)[nH]1 | inactive |  |
| CCSC1=N/C(=C\c2ccc(C(=O)O)cc2)C(=O)S1 | inactive |  |
| COc1ccc(S(=O)(=O)N2CCN(C(=O)c3cc(-c4ccc(Br)cc4)n[nH]3)CC2)cc1OC | inconclusive: -13.2% [at 46 µM] |  |
| O=C(Nc1ccc2c(c1)OCCO2)c1ccccn1 | inactive |  |
| CN(c1ccccc1C(=O)NCc1ccccn1)S(C)(=O)=O | inconclusive: -13.8% |  |
| O=C(CSc1nc2ccccc2c(=O)n1-c1ccccc1)c1c[nH]c2ccccc12 | inconclusive: -33.6% |  |
| CC1=C(C)CC(C(=O)Nc2nc(-c3ccc(C)cc3C)c(C)s2)C(C(=O)O)C1 (configuration not stated) | inconclusive: 13.1% |  |
| CC(NC(=O)c1ccc(Cn2c(SCc3ccccc3)nc3cccnc32)cc1)c1ccccc1 (configuration not stated) | inconclusive: 10% [at 46 µM] |  |
| O=C(Nc1ccccc1C(F)(F)F)N1Cc2ccccc2Oc2ncccc21 | inconclusive: 3.82% [at 46 µM] |  |
| Cn1cc(C(=O)c2ccc(Cl)cc2Cl)cc1C=O | inconclusive: -14.4% [at 46 µM] |  |
| O=P(c1ccccc1)(c1ccccc1)c1nc(-c2ccccc2)oc1NCc1ccccc1 | inconclusive: -19% [at 46 µM] |  |
| O=[N+]([O-])c1ccc(OCc2cnc(Cl)s2)c([N+](=O)[O-])c1 |  | inconclusive: 7.08 µM [rising, full curve] |
| COc1cc2[nH]c(=S)n(Cc3ccco3)c(=O)c2cc1OC | inactive |  |

| Structure (SMILES) | ratio change, negative = inhibition | Potency |
| --- | --- | --- |
| CN1CCN(c2ncc3nc(-c4ccc(Cl)cc4)c(=O)n(Cc4ccc(F)cc4)c3n2)CC1 | inactive |  |
| COc1ccccc1NC(=O)CC1C(=O)Nc2c1c(=O)n(C)c(=O)n2C (configuration not stated) | inactive |  |
| Cc1ccc(-n2ncc(C(=O)NCCN3CCc4ccccc4C3)c2C2CCN(C(=O)OC(C)(C)C)CC2)c(C)c1 | inactive |  |
| CCOc1ccc(NC(=O)COc2ccccc2)c([N+](=O)[O-])c1 | inconclusive: -8.54% [at 46 µM] |  |
| CC1=C(C(=O)Nc2ccccn2)C(c2ccc3c(c2)OCO3)C2=C(CC(C)(C)CC2=O)N1 (configuration not stated) | inconclusive: 30.7% [at 9.22 µM] |  |
| Cc1ccc(CSc2nc3ccncc3n2CC(=O)Nc2cc(C)cc(C)c2)cc1 | inconclusive: 3.08% |  |
| CCOC(=O)c1cn(Cc2cccc(Cl)c2)nn1 | inconclusive: 2.01% |  |
| CCOc1cc(N2CCOCC2)c(OCC)cc1NC(=O)CSc1ncn[nH]1 | inconclusive: 18.5% [at 46 µM] |  |
| O=C(COCc1cc(-c2ccc3c(c2)OCO3)on1)Nc1cccc(O)c1 | inconclusive: 24.9% [at 46 µM] |  |
| CC(=O)c1cccc(NC(=O)Nc2cccs2)c1 | inactive |  |
| COc1ccc(Cl)cc1NC(=O)c1c(NCc2cccnc2)sc2c1CCCC2 | inconclusive: -31.5% [at 46 µM] |  |
| FC(F)Oc1ccc(-c2csc(=Nc3cccnc3)n2CC2CCCO2)cc1 (configuration not stated) | inconclusive: -44.4% |  |
| COc1cc2oc(=O)c3c(c2cc1OCC(=O)c1c(C)n(C)c2ccccc12)CCCC3 | inconclusive: -3.38% |  |
| CC(C)c1cnc2c(c1SCC(=O)c1ccc(Cl)cc1)c(=O)n(C)c(=O)n2C | inactive |  |
| CCn1c(=O)c(C(=O)CN2CCCc3ccccc32)c(N)n(Cc2ccccc2)c1=O | inconclusive: 13% |  |
| COc1ccc(CN(Cc2cc3cccc(C)c3n3nnnc23)C(=O)N2CCOCC2)cc1 | inconclusive: -19.5% [at 46 µM] |  |
| NNC(=O)Cn1c(-c2nonc2N)nc2ccccc21 | inactive |  |
| COc1cccc(CN2CCN(C(=O)c3cccs3)CC2)c1OC | inconclusive: -1.33% |  |
| O=C(Cn1cnc2ccccc2c1=O)Nc1nnc(SCc2ccccc2)s1 | inactive |  |
